Assay: Sensory evaluation of pungent (spicy) flavor
Set-up: key to Spicy flavor at evaluated concentration: +++: Extremely potent spicy flavor; ++: Very spicy flavor; +: Somewhat spicy flavor; ±: Slight spicy flavor; −: No spicy flavor
Conditions: for Threshold value (concentration at which pungent flavor is perceived): diluted with distilled water, tested from the lowest concentration

Row | SMILES | Spicy flavor at evaluated concentration (10^−3 mol/L in distilled water) | Spicy flavor at evaluated concentration (10^−4 mol/L in distilled water) | Spicy flavor at evaluated concentration (10^−5 mol/L in distilled water) | Spicy flavor at evaluated concentration (10^−6 mol/L in distilled water) | Spicy flavor at evaluated concentration (10^−7 mol/L in distilled water) | Spicy flavor at evaluated concentration (10^−8 mol/L in distilled water) | Threshold value (concentration at which pungent flavor is perceived)
1 | COc1cc(CNC(=O)CCCC/C=C/C(C)C)ccc1O [Capsaicin] | +++ | ++ | + | ± | ± | − | about 10^−7 mol/L
2 | CCCCCCCC(=O)CCc1ccc(O)c(OC)c1 [Paradol, 1-(4′-hydroxy-3′-methoxyphenyl)-3-decanone] | + | ± | − | − | − | − | 10^−4 mol/L

From patent publication US8445005B2, “Antiwrinkle agent, lipolysis promoter, external composition for skin and food and beverage composition” (Kao Corporation, priority 2004, dated 2013)
